According to article PMC10128056:
These are yes or no findings as the source states them, for the method shown.

Target: T1, L. monocytogenes GlmS (L. monocytogenes) (UniProt Q8Y915)
T1 sequence: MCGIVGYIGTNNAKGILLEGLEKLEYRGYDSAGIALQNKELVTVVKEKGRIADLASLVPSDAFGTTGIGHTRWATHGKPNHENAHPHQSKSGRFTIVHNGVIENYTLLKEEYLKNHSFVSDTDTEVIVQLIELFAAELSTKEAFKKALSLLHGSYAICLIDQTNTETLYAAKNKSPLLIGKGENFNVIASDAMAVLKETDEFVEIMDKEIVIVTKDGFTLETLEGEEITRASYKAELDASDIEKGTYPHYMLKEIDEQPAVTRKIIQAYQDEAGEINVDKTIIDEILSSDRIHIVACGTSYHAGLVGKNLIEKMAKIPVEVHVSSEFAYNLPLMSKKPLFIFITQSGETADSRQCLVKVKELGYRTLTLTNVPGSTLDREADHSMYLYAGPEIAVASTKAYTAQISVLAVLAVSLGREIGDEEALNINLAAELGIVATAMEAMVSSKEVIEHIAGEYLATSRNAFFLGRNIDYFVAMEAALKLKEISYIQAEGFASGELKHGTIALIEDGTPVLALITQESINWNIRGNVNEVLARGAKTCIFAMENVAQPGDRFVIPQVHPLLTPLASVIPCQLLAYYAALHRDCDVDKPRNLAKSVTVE
Experiment: two-hybrid; BACTH bacterial two-hybrid in BTH101 E. coli; each protein as N- and C-terminal fusion to T18 and T25; blue-white assay on X-Gal plates (24 h at 30°C, four replicates) and quantitative β-galactosidase assays (triplicate, normalised to the Zip positive control)

For L. monocytogenes GlmR, the binding was “no binding”.
